PubChem BioAssay AID1159578, Peter MacCallum Cancer Centre, 2015

- Assay: 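Genome-wide hunt for genes controlling movement of lymphatic endothelial cells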 (primary screen)
- Cell system: human lymphatic endothelial cells
- Knock-down reagent: siRNA pool against human genes, 40 nM
- Timing: 48 h after transfection
- Detection: 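Cells stained with dye and imaged after a scratch; covered wound area and nuclei counted, duplicates averaged, migration set against mock wells and turned into a robust z-score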
- Scale: migration robust z-score: higher = faster migration into the scratch; nuclei per well: higher = more cells in the well
- Call rule: 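Migration changed when robust z exceeds 2 or falls below -2 and mean nuclei number is at least 3300; otherwise not called changed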
- Meaning of the calls: active = migration changed; inactive = no migration change, or too few cells
Shown is an unselected part of about 18,000 reagents tested. About 1,030 of all reagents (5.7%) count as active. 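Inactive calls also include pools with fewer than 3300 nuclei, whose migration was not assessed.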 Raw values vary from plate to plate and are shown uncorrected. A number with no mark means an inactive call. Not all columns of the deposit are shown.

NDUFAF4
- migration robust z-score: 0.04
- nuclei per well, duplicate mean: 5616

NPNT
- migration robust z-score: -1.54
- nuclei per well, duplicate mean: 3436

ASTN1
- migration robust z-score: -0.54
- nuclei per well, duplicate mean: 6656

RNF150
- migration robust z-score: 1.5
- nuclei per well, duplicate mean: 6536

CRMA
- migration robust z-score: -2.34 (active)
- nuclei per well, duplicate mean: 5270

RUFY2
- migration robust z-score: 1.93
- nuclei per well, duplicate mean: 6434

RPS15
- migration robust z-score: -1.62
- nuclei per well, duplicate mean: 4920

DNAJB6
- migration robust z-score: -0.02
- nuclei per well, duplicate mean: 6670

3 entries from above, reduced to “migration robust z-score”:
ASTN1 = -0.54
RNF150 = 1.5
CRMA = -2.34 (active)

The list goes on.
DGKG
- migration robust z-score: -0.86
- nuclei per well, duplicate mean: 4652

UPF3B
- migration robust z-score: -0.89
- nuclei per well, duplicate mean: 3706

DNAJC11
- migration robust z-score: -0.15
- nuclei per well, duplicate mean: 6020

ABI3BP
- migration robust z-score: 1.96
- nuclei per well, duplicate mean: 6804

FRG2
- migration robust z-score: -1.79
- nuclei per well, duplicate mean: 5484

AGER
- migration robust z-score: 2.18 (active)
- nuclei per well, duplicate mean: 5810

DOC2B
- migration robust z-score: 0.88
- nuclei per well, duplicate mean: 5730

NIT1
- migration robust z-score: 0.6
- nuclei per well, duplicate mean: 5778

BACC1
- migration robust z-score: 0.78
- nuclei per well, duplicate mean: 5504

GCDH
- migration robust z-score: -0.86
- nuclei per well, duplicate mean: 5483

HSF4
- migration robust z-score: -0.62
- nuclei per well, duplicate mean: 4493

LRRC4
- migration robust z-score: 2.91 (active)
- nuclei per well, duplicate mean: 5784

SMDT1
- migration robust z-score: -1.32
- nuclei per well, duplicate mean: 6316
